Experimental findings from the supplement of paper PMC4683952 are described below.

Counter-ions that a name gives are not always drawn. Some of the results follow. Rule as the data show it: active = 2.5 or more and inactive = the rest. Most values lie within the scatter of the assay; repeated measurements hardly agree.

For this assay, the system named is Lgr5 (MarsCy1-Lgr5-EGFP, U2OS). In words: cell-surface Lgr5 expression (SCi1 fluorescence, background-subtracted) relative to WT control (fold of WT control); higher = more Lgr5 at the plasma membrane. The conditions noted are these: U2OS MarsCy1-Lgr5-EGFP stable; treatment time: overnight; library: Prestwick; 20 µM.
For the compound `CC1O[C@H](O[C@]2(O[C@H]3CC[C@@]4(C)C(=CC[C@H]5[C@@H]6C[C@H]7[C@H]([C@H](C)[C@H]8CC[C@H](C)CN87)[C@@]6(C)CC[C@@H]54)C3)C[C@@H](O[C@@H]3OC(CO)[C@@H](O)[C@@H](O)C3O)[C@@H](O)C(CO)O2)C(O)[C@@H](O)[C@H]1O` (stereo partly drawn) [Solanine alpha], the “cell-surface Lgr5 expression” value is inactive: 1.73.
With `Cc1c(Nc2ncccc2C(=O)O)cccc1C(F)(F)F` [Flunixin meglumine] the figure was active: 3.44.
With `CC[C@H](c1ccc(O)cc1)[C@@H](CC)c1ccc(O)cc1` [Hexestrol], the “cell-surface Lgr5 expression” value was inactive: 1.56.
The same measure for `C[C@H](CS)C(=O)N1CCC[C@H]1C(=O)O` [Captopril]: inactive: 1.3.
With `CC1(C)O[C@@H]2C[C@H]3[C@@H]4C[C@H](F)C5=CC(=O)C=C[C@]5(C)[C@H]4[C@@H](O)C[C@]3(C)[C@]2(C(=O)CO)O1` [Flunisolide] the figure was active: 3.92; with `O=C(O)c1cccnc1` [Niacin], inactive: 1.13.
With `CCCCc1oc2ccccc2c1C(=O)c1cc(I)c(OCCN(CC)CC)c(I)c1` [Amiodarone hydrochloride] the figure was inactive: 1.07; with `O=c1[nH]c(=O)n([C@H]2C[C@H](O)[C@@H](CO)O2)cc1I` [Idoxuridine], active: 2.69.
As for `Cc1cccc(N(C)C(=S)Oc2ccc3ccccc3c2)c1` [Tolnaftate], the “cell-surface Lgr5 expression” value is inactive: 1.45.
Regarding `NNC(=O)c1ccncc1` [Isoniazid], the “cell-surface Lgr5 expression” value was inactive: 0.205.
For the compound `CC1(C)O[C@@H]2C[C@H]3[C@@H]4C[C@H](F)C5=CC(=O)CC[C@]5(C)[C@H]4[C@@H](O)C[C@]3(C)[C@]2(C(=O)CO)O1` [Flurandrenolide], the “cell-surface Lgr5 expression” value is active: 3.47.
With `CCC[C@@H]1C[C@@H](C(=O)N[C@@H]([C@H]2O[C@H](SC)[C@H](O)[C@@H](O)[C@H]2O)[C@@H](C)O)N(C)C1` [Lincomycin hydrochloride] the figure was inactive: 1.51.
Take `CN1CCCN=C1/C=C/c1cccs1` [Pyrantel tartrate]: the “cell-surface Lgr5 expression” value was inactive: 1.85.
The same measure for `CC12CC3CC(C)(C1)CC(N)(C3)C2` [Memantine Hydrochloride]: inactive: 1.59; for `C#C[C@]1(O)CC[C@H]2[C@@H]3CCC4=Cc5oncc5C[C@]4(C)[C@H]3CC[C@@]21C` [Danazol]: inactive: 0.918.
The same measure for `O=C(Nc1ccc([N+](=O)[O-])cc1Cl)c1cc(Cl)ccc1O` [Niclosamide]: inactive: 1.39; for `CCOc1ccc(Cc2nccc3cc(OCC)c(OCC)cc23)cc1OCC` [Ethaverine hydrochloride]: inactive: 1.72; for `CC(C)NNC(=O)c1ccncc1` [Iproniazide phosphate]: inactive: 1.1.
The same measure for `CCN(CC)CCNC(=O)c1cc(Br)c(N)cc1OC` [Bromopride]: inactive: 1.86; for `OC(CCN1CCCCC1)(c1ccccc1)c1ccccc1` [Pridinol methanesulfonate salt]: inactive: 1.62; for `C[N+](C)(C)CCOC(N)=O` [Carbachol]: inactive: 1.71.
Regarding `CC(C)(C)NC[C@H](O)COc1cccc2c1CCCC2=O` [(-) -Levobunolol hydrochloride], the “cell-surface Lgr5 expression” value is inactive: 1.5.
The same measure for `Nc1ncn(C2OC(CO)C(O)C2O)c(=O)n1` (configuration not stated) [Azacytidine-5]: inactive: 2.22; for `CCOC(=O)C1=C(C)NC(C)=C(C(=O)OC)C1c1cccc(Cl)c1Cl` (configuration not stated) [Felodipine]: inactive: 0.651.
With `C[C@H](CCC(=O)O)[C@H]1CC[C@H]2[C@@H]3C(=O)C[C@@H]4CC(=O)CC[C@]4(C)[C@H]3CC(=O)[C@]12C` [Dehydrocholic acid] the figure was inactive: 0.926.
The same measure for `O=C(O)CCC(=O)c1ccc(-c2ccccc2)cc1` [Fenbufen]: inactive: 1.84; for `CN1CCN2c3ccccc3Cc3ccccc3C2C1` (configuration not stated) [Mianserine hydrochloride]: inactive: 1.13.
For the compound `N[C@@H](Cc1ccc(O)c(O)c1)C(=O)O` [Levodopa], the “cell-surface Lgr5 expression” value was inactive: 1.42.
The same measure for `CCC(C)(C)C(=O)O[C@H]1C[C@@H](C)C=C2C=C[C@H](C)[C@H](CC[C@@H]3C[C@@H](O)CC(=O)O3)[C@H]21` [Simvastatin]: active: 2.52.
With `CC(=O)Oc1ccc(C(c2ccc(OC(C)=O)cc2)c2ccccn2)cc1` [Bisacodyl] the figure was inactive: 1.39; with `CCCNC(C)(C)COC(=O)c1ccccc1` [Meprylcaine hydrochloride], inactive: 1.15; with `CC(NCCc1ccc(O)cc1)C(O)c1ccc(O)cc1` (configuration not stated) [Ritodrine hydrochloride], inactive: 2.06.
As for `C[N+](C)(CCOc1ccccc1)Cc1ccccc1.O=C([O-])c1cc2ccccc2cc1O` [Bephenium hydroxynaphthoate], the “cell-surface Lgr5 expression” value was inactive: 1.88.
With `CCC1(C)CC(=O)NC1=O` (configuration not stated) [Ethosuximide] the figure was inactive: 1.27; with `Nc1ccc(/N=N/c2ccccc2)c(N)n1` [Phenazopyridine hydrochloride], inactive: 1.
`CN(C)CCOC(=O)C(c1ccccc1)C1(O)CCCC1` (configuration not stated) [Cyclopentolate hydrochloride]: the “cell-surface Lgr5 expression” value was inactive: 1.31.
For `CC1=CC(=O)C2=C(C)CC[C@@H]3[C@H](OC(=O)[C@H]3C)[C@@H]12` [Leucomisine], the “cell-surface Lgr5 expression” value was inactive: 1.49.
With `CCC(=O)O[C@]1(C(=O)SCF)[C@H](C)C[C@H]2[C@@H]3C[C@H](F)C4=CC(=O)C=C[C@]4(C)[C@@]3(F)[C@@H](O)C[C@@]21C` [Fluticasone propionate] the figure was inactive: 2.07; with `C[N+]1(C)CCCC1C(=O)O` (configuration not stated) [Stachydrine hydrochloride], active: 3.24; with `OCCN1CCN(CC/C=C2/c3ccccc3Sc3ccc(Cl)cc32)CC1` [Zuclopenthixol hydrochloride], inactive: 1.92.
With `O=C(O)c1ccccc1Nc1cccc(C(F)(F)F)c1` [Flufenamic acid], the “cell-surface Lgr5 expression” value was inactive: 2.36.
The same measure for `CC[N+](C)(CC)CCC[n+]1c(-c2ccccc2)c2cc(N)ccc2c2ccc(N)cc21` [Propidium iodide]: active: 2.79; for `O=C1O[C@H]([C@@H](O)CO)C(O)=C1O` [Ascorbic acid]: inactive: 1.69; for `COc1cc(N)c(Cl)cc1C(=O)NC1CCN(CCCOc2ccc(F)cc2)CC1OC` (configuration not stated) [Cisapride]: inactive: 0.703.
The same measure for `CN(C)CCC(c1ccc(Cl)cc1)c1ccccn1` (configuration not stated) [Chlorpheniramine maleate]: inactive: 0.978; for `COc1cc(=O)n(C)c2c(OCC(O)C(C)(C)O)cccc12` (configuration not stated) [Foliosidine]: inactive: 2.01.
Consider `COC1=CC(=O)C[C@@H](C)[C@]12Oc1c(Cl)c(OC)cc(OC)c1C2=O` [Griseofulvin], for which the “cell-surface Lgr5 expression” value was inactive: 1.48.
With `CN(C)CCCC1(c2ccc(F)cc2)OCc2cc(C#N)ccc21` (configuration not stated) [Citalopram Hydrobromide] the figure was inactive: 2.2; with `O=C(O)CNC(=O)C(CS)Cc1ccccc1` (configuration not stated) [Thiorphan], active: 2.79.
With `CC(C)(C)NCC(O)c1ccc(O)c(CO)c1` (configuration not stated) [Salbutamol] the figure was inactive: 1.89.
The same measure for `Cc1c(OCC(F)(F)F)ccnc1C[S+]([O-])c1nc2ccccc2[nH]1` (configuration not stated) [Lansoprazole]: inactive: 1.3; for `COc1c(O)cc2c(c1O)[C@@H]1O[C@H](CO)[C@@H](O)[C@H](O)[C@H]1OC2=O` [Bergenin monohydrate]: active: 2.65.
As to `O=C(NCC1CCCCN1)c1cc(OCC(F)(F)F)ccc1OCC(F)(F)F` (configuration not stated) [Flecainide acetate], the “cell-surface Lgr5 expression” value is active: 2.55.
With `CC1CCc2cc(F)cc3c(=O)c(C(=O)O)cn1c23` (configuration not stated) [Flumequine] the figure was inactive: 1.4.
For `CCCCOc1ccc(OCCCN2CCOCC2)cc1` [Pramoxine hydrochloride], the “cell-surface Lgr5 expression” value is inactive: 1.92.
`COc1cc(N)c(Cl)cc1C(=O)NC1CCN(Cc2ccccc2)CC1` [Clebopride maleate]: the “cell-surface Lgr5 expression” value is inactive: 0.807.
Take `O=C(c1ccc(OCCN2CCCCC2)cc1)c1c(-c2ccc(O)cc2)sc2cc(O)ccc12` [Raloxifene hydrochloride]: the “cell-surface Lgr5 expression” value was inactive: 2.29.
The same measure for `CC(CN1c2ccccc2Sc2ccccc21)N(C)C` (configuration not stated) [Promethazine hydrochloride]: inactive: 1.59; for `NS(=O)(=O)c1cc2c(cc1C(F)(F)F)NC(Cc1ccccc1)NS2(=O)=O` (configuration not stated) [Bendroflumethiazide]: inactive: 2.37; for `CCOC(=O)C1=C(C)NC(C)=C(C(=O)OC)C1c1cccc([N+](=O)[O-])c1` (configuration not stated) [Nitrendipine]: inactive: 1.71.
As for `CCn1cc(C(=O)O)c(=O)c2cc(F)c(N3CCNCC3)cc21` [Norfloxacin], the “cell-surface Lgr5 expression” value was inactive: 1.01.
With `CC(C)(Oc1ccc(C2CC2(Cl)Cl)cc1)C(=O)O` (configuration not stated) [Ciprofibrate] the figure was inactive: 1.07; with `CC1=C(C(=O)O)N2C(=O)[C@@H](NC(=O)[C@H](N)c3ccc(O)cc3)[C@H]2SC1` [Cefadroxil], inactive: 1.88; with `CNC1(C)C2CCC(C2)C1(C)C` (configuration not stated) [Mecamylamine hydrochloride], inactive: 1.49.
As for `CCC(C)(CN(C)C)OC(=O)c1ccccc1` (configuration not stated) [Amyleine hydrochloride], the “cell-surface Lgr5 expression” value was inactive: 1.31.
The same measure for `CC(=C(CCO)SSCC1CCCO1)N(C=O)Cc1cnc(C)nc1N` (stereo in doubt) [Fursultiamine Hydrochloride]: inactive: 1.18.
With `C=C(NC(=O)C(=C)NC(=O)c1csc(C2=N[C@@H]3c4csc(n4)[C@H]4NC(=O)c5csc(n5)[C@H]([C@](C)(O)[C@@H](C)O)NC(=O)[C@H]5CSC(=N5)/C(=C/C)NC(=O)[C@H]([C@@H](C)O)NC(=O)c5csc(n5)[C@]3(CC2)NC(=O)[C@H](C)NC(=O)C(=C)NC(=O)[C@H](C)NC(=O)[C@H]([C@@H](C)CC)N[C@@H]2C=Cc3c([C@H](C)O)cc(nc3[C@H]2O)C(=O)O[C@@H]4C)n1)C(N)=O` [Thiostrepton] the figure was inactive: 1.38.
